Measured values as given in paper PMC12431657, “Discovery and mechanistic insights of dibenzoylmethane as a broad spectrum inhibitor of coronavirus” (PLOS Pathogens, 2025).
Counter-ions that a name gives are not always drawn. Like-named read-outs stand apart in the source and are kept apart here. About 60 (2%) of roughly 3,300 compounds showed an effect of 50% or more. Some of the results follow.

System: HCoV-OC43
Parameters: species or system RD; HTS, protection from HCoV-OC43 induced cell death, luminescent cell viability (CellCounting-Lite 2.0), inhibition rate
Settings: 24 h post infection, 1 h compound pre-incubation, 10 µM, inhibitor

| SMILES | OC43 Inhibition rate | OC43 Inhibition rate (OC43 Inhibition rate, 24 h) |
| --- | --- | --- |
| CC(=O)O[C@@H]1[C@@H](OC(C)=O)[C@@H](O)[C@H](Oc2c(-c3ccc(O)cc3)oc3cc(O)cc(O)c3c2=O)O[C@H]1C [SL 0101-1] | 0.7% |  |
| C=C1C(=O)O[C@H]2C[C@H](C)C(/C=C/C(C)=O)=CC[C@H]12 [Xanthatin] | -0.6% |  |
| COc1cc2oc(-c3ccc(O)c(O)c3)c(OC)c(=O)c2c(O)c1OC [Chrysosplenol D] | 2.8% |  |
| CC[C@H](CC[C@@H](C)[C@H]1CC[C@H]2[C@@H]3CC=C4C[C@@H](O)CC[C@]4(C)[C@H]3CC[C@]12C)C(C)C [Beta-Sitosterol (purity>80%)] |  | -0.3% |
| O=c1oc2cc(O)ccc2c2ccc(O)cc12 [Urolithin A] | -4.5% |  |
| O=C(O)c1ccc(O)c(O)c1O [2,3,4-Trihydroxybenzoic acid] | -1.2% |  |
| C[C@@H]1CC[C@@]2(NC1)O[C@H]1C[C@H]3[C@@H]4CC=C5C[C@@H](O[C@@H]6O[C@H](CO)[C@H](O)[C@H](O[C@@H]7O[C@H](CO)[C@@H](O)[C@H](O)[C@H]7O)[C@H]6O[C@@H]6O[C@@H](C)[C@H](O)[C@@H](O)[C@H]6O)CC[C@]5(C)[C@H]4CC[C@]3(C)[C@H]1[C@@H]2C [Solasonine] | 13.2% |  |
| CC(C)=CC[C@@H](O)C1=CC(=O)c2c(O)ccc(O)c2C1=O [Shikonin] | 0.8% |  |
| COc1cc2c(cc1OC)-c1cc3ccc(OC)c(O)c3c[n+]1CC2 [Palmaturbine (hydroxide)] |  | 2.9% |
| O=C(/C=C/c1ccc(O)cc1)c1ccccc1 [4-Hydroxychalcone] | 0% |  |
| O=C(/C=C/c1ccc(O)c(O)c1)O[C@@H]1C[C@@](OC(=O)/C=C/c2ccc(O)c(O)c2)(C(=O)O)C[C@@H](O)[C@@H]1O [Cynarin] | 3% |  |
| CC1=C(/C=C/C(C)=C/C=C/C(C)=C/C(=O)O)C(C)(C)CCC1 [Retinoic acid] | 0.1% |  |
| CC(C)=CCC[C@](C)(O[C@@H]1O[C@H](CO)[C@@H](O)[C@H](O)[C@H]1O)[C@H]1CC[C@]2(C)[C@@H]1[C@H](O)C[C@@H]1[C@@]3(C)CC[C@H](O)C(C)(C)[C@@H]3[C@@H](O[C@@H]3O[C@H](CO)[C@@H](O)[C@H](O)[C@H]3O[C@@H]3O[C@@H](C)[C@H](O)[C@@H](O)[C@H]3O)C[C@]12C [Ginsenoside Re] | -0.2% |  |
| CC(C)=CCc1c(O)cc(O)c2c(=O)c(O[C@@H]3O[C@@H](C)[C@H](O)[C@@H](O)[C@H]3O)c(-c3ccc(O)cc3)oc12 [IKarisoside A] | 14.9% |  |
| COc1ccc2ccc(=O)oc2c1CC=C(C)C [Osthole] | 30.2% |  |
| CC(=O)N[C@@H](CCCCN)C(=O)O [Acetyl-L-lysine] | -0.1% |  |
| C[C@@H]1CC[C@@]2(OC1)O[C@H]1C[C@H]3[C@@H]4CC[C@H]5C[C@@H](O[C@@H]6O[C@H](CO)[C@H](O[C@@H]7O[C@H](CO)[C@@H](O)[C@H](O[C@@H]8OC[C@@H](O)[C@H](O)[C@H]8O)[C@H]7O[C@@H]7O[C@H](CO)[C@H](O)[C@H](O)[C@H]7O)[C@H](O)[C@H]6O)CC[C@]5(C)[C@H]4CC(=O)[C@]3(C)[C@H]1[C@@H]2C [Terrestrosin D] | -4.6% |  |
| OCC(O)[C@@H](O)[C@H](O)[C@H](O)CO[C@H]1O[C@H](CO)[C@@H](O)[C@H](O)[C@H]1O (some centres unmarked) [Isomalt] | 0.6% |  |
| Cc1cc(=O)oc2cc(O)cc(O)c12 [5,7-Dihydroxy-4-methylcoumarin] | 3.1% |  |

| SMILES | OC43 Inhibition rate | OC43 Inhibition rate (OC43 Inhibition rate, 24 h) |
| --- | --- | --- |
| O=c1cc(-c2ccccc2)oc2cc(O)ccc12 [7-Hydroxyflavone] | 0.7% |  |
| CCCCCCCC/C=C\CCCCCCCC(=O)NCC(=O)O [N-Oleoyl glycine] | 1.3% |  |
| O=C(O)c1cccc(Oc2ccccc2)c1 [3-Phenoxybenzoic acid] | -1.1% |  |
| C/C=C(/C)C(=O)O[C@H]1Cc2cc3ccc(=O)oc3cc2OC1(C)C [Decursinol angelate] | -0.5% |  |
| CC(C)(O)C(=O)O [2-Hydroxyisobutyric acid] | 0.8% |  |
| CN(C)[C@@H]1C(O)=C(C(N)=O)C(=O)[C@@]2(O)C(O)=C3C(=O)c4c(O)cccc4[C@@](C)(O)[C@H]3[C@H](O)[C@@H]12 [Oxytetracycline] | 0% |  |
| C[N+](C)(C)CCCCC(=O)[O-] [delta-Valerobetaine] | 4.4% |  |
| COc1ccc([C@@H]2CC(=O)c3c(O)cc(O[C@@H]4O[C@H](CO[C@@H]5O[C@@H](C)[C@H](O)[C@@H](O)[C@H]5O)[C@@H](O)[C@H](O)[C@H]4O)cc3O2)cc1 [Didymin] | 0.7% |  |
| OC[C@H]1O[C@@](CO)(OC[C@@]2(O[C@H]3O[C@H](CO)[C@@H](O)[C@H](O)[C@H]3O)O[C@H](CO)[C@@H](O)[C@@H]2O)[C@@H](O)[C@@H]1O [1-Kestose] | -0.8% |  |
| Cc1ccc(C(N)=O)cn1 [6-Methylnicotinamide] | 8.3% |  |
| CC(C)C[C@@](O)(CC(=O)OCc1ccc(O[C@@H]2O[C@H](CO)[C@@H](O)[C@H](O)[C@H]2O)cc1)C(=O)OCc1ccc(O[C@@H]2O[C@H](CO)[C@@H](O)[C@H](O)[C@H]2O)cc1 [Militarine] | -0.1% |  |
| COc1ccc([C@H]2OC[C@H]3[C@@H]2CO[C@H]3c2ccc(O[C@@H]3O[C@H](CO)[C@@H](O)[C@H](O)[C@H]3O)c(OC)c2)cc1OC [Phillyrin] | 0.2% |  |
| CC(=O)[C@H]1CC[C@H]2[C@@H]3CCC4=CC(=O)CC[C@]4(C)[C@H]3CC[C@]12C [Progesterone] | -1% |  |
| C[C@@H]1O[C@@H](OC[C@H]2O[C@@H](Oc3c(-c4ccc(O)cc4)oc4cc(O[C@@H]5O[C@@H](C)[C@H](O)[C@@H](O)[C@H]5O)cc(O)c4c3=O)[C@H](O)[C@@H](O)[C@H]2O)[C@H](O)[C@H](O)[C@H]1O [Robinin] | -1.1% |  |
| COc1cc2c3c(c1OC)-c1ccccc1C[C@H]3N(C)CC2 [Nuciferine] | 2.6% |  |
| O=C(O)CCCCC(=O)O [Adipic acid] | -5.2% |  |
| Cn1cc(C(=O)O)ccc1=O [1-Methyl-6-oxo-1,6-dihydropyridine-3-carboxylic acid] | 0.2% |  |
| COCC(=O)O [Methoxyacetic acid] | 5.1% |  |
| COc1ccc(-c2cc(=O)c3c(OC)c(OC)c(OC)c(OC)c3o2)cc1O [3'-Demethylnobiletin] | 12.4% |  |

Three entries from above, ordered by heavy-atom count, descending.

| SMILES | OC43 Inhibition rate | OC43 Inhibition rate (OC43 Inhibition rate, 24 h) |
| --- | --- | --- |
| C[C@@H]1O[C@@H](OC[C@H]2O[C@@H](Oc3c(-c4ccc(O)cc4)oc4cc(O[C@@H]5O[C@@H](C)[C@H](O)[C@@H](O)[C@H]5O)cc(O)c4c3=O)[C@H](O)[C@@H](O)[C@H]2O)[C@H](O)[C@H](O)[C@H]1O [Robinin] | -1.1% |  |
| CN(C)[C@@H]1C(O)=C(C(N)=O)C(=O)[C@@]2(O)C(O)=C3C(=O)c4c(O)cccc4[C@@](C)(O)[C@H]3[C@H](O)[C@@H]12 [Oxytetracycline] | 0% |  |
| O=C(O)c1cccc(Oc2ccccc2)c1 [3-Phenoxybenzoic acid] | -1.1% |  |

The listing continues:

| SMILES | OC43 Inhibition rate | OC43 Inhibition rate (OC43 Inhibition rate, 24 h) |
| --- | --- | --- |
| COc1c2ccoc2nc2c(O)cccc12 [Robustine] | 1.9% |  |
| N[C@@H](CC(=O)N[C@@H](CC(=O)O)C(=O)O)C(=O)O [β-Aspartylaspartic acid] | 2.7% |  |
| CCCC(=O)c1c(O)c(Cc2c(O)c(Cc3c(O)c(C)c(OC)c(C(=O)CCC)c3O)c(O)c(C(=O)[C@@H](C)CC)c2O)c(O)c(C)c1OC [Agrimol B] | 0.4% |  |
| CC(C)(C)c1ccc(O)c(C(C)(C)C)c1 [2,4-Di-tert-butylphenol] | 0.9% |  |
| CC(C)(O)[C@H]1CC[C@@](C)([C@H]2CC[C@]3(C)[C@@H]2[C@H](O)C[C@@H]2[C@@]4(C)CC[C@H](O)C(C)(C)[C@@H]4[C@@H](O[C@@H]4O[C@H](CO)[C@@H](O)[C@H](O)[C@H]4O)C[C@]23C)O1 [Pseudoginsenoside RT5] | 2.3% |  |
| C[C@]12CC[C@@H]3c4ccc(O)cc4CC[C@H]3[C@@H]1CC[C@@H]2O [Estradiol] | 0.6% |  |
| COc1cc(CC(=O)C(=O)O)ccc1O [Vanilpyruvic acid] | 6% |  |
| c1ccc(Nc2ccccc2)cc1 [Diphenylamine (hydrochloride)] | -2.3% |  |
| CC[C@@]1(O)C(=O)OCc2c1cc1n(c2=O)Cc2cc3ccccc3nc2-1 [Camptothecin] | -3.3% |  |
| C[n+]1cc2c3c(ccc2c2ccc4cc5c(cc4c21)OCO5)OCO3 [Sanguinarine (chloride)] | -27.3% |  |
| CC1=C(CC[C@H](C)CO[C@@H]2O[C@H](CO)[C@@H](O)[C@H](O)[C@H]2O)O[C@H]2C[C@H]3[C@@H]4CC[C@@H]5C[C@@H](O[C@@H]6O[C@H](CO)[C@@H](O)[C@H](O)[C@H]6O[C@@H]6O[C@H](CO)[C@@H](O)[C@H](O)[C@H]6O)CC[C@]5(C)[C@H]4CC[C@]3(C)[C@@H]12 [Timosaponin C] | 1.3% |  |
| O=C1C[C@@H](c2ccc(O)cc2)Oc2cc(O)ccc21 [Liquiritigenin] | 0.2% |  |
| CC(C)=CCC[C@](C)(O[C@@H]1O[C@H](CO)[C@@H](O)[C@H](O)[C@H]1O)[C@H]1CC[C@]2(C)[C@@H]1[C@H](O)C[C@@H]1[C@@]3(C)CC[C@H](O)C(C)(C)[C@@H]3[C@@H](O)C[C@]12C [Ginsenoside F1] | 2.8% |  |
| Nc1ncnc2c1ncn2[C@@H]1O[C@H](CO)[C@@H](O)[C@H]1O [Adenosine] | 5.5% |  |
| N[C@H](CO)Cc1cnc[nH]1 [L-Histidinol (dihydrochloride)] | -0.9% |  |
| C=C(C)[C@@H]1CC[C@]2(C(=O)O)CC[C@]3(C)[C@H](CC[C@@H]4[C@@]5(C)CCC(=O)C(C)(C)[C@@H]5CC[C@]43C)[C@@H]12 [Betulonic acid] | -0.8% |  |
| CCN(CC)c1ccc2cc(-c3nc4ccccc4s3)c(=O)oc2c1 [Coumarin 6] | -0.3% |  |
| CCCCCCCC/C=C\CCCCCCCC(=O)OC[C@H](COP(=O)(O)O)OC(=O)CCCCCCC/C=C\CCCCCCCC [1,2-Dioleoyl-sn-glycero-3-phosphate, sodium salt] | 1.6% |  |
